# Test results reported in US6821954B2 (Auckland UniServices Limited, priority 1997, dated 2004).
# Assay: Boc solid-phase peptide synthesis; benzhydrylamine resin; diisopropylcarbodiimide
# Settings: whole synthesis, scale 0.5 mmole
substance,measurement,value
KCNTATCA-NH2 (disulfide 2-7),isolated mass,188 mg

# Bridge positions count the residues as written; N and C are the ends. Ends that are not written are not given here.
